Oligonucleotides screened, 5′ to 3′:
TPP: TPP riboswitch RNA three-way junction, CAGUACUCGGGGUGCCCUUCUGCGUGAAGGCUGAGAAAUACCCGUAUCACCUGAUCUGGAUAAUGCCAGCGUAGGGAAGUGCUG. Hit rate about 0.7% of about 24,000 compounds.
PreQ1: PreQ1 riboswitch RNA pseudoknot, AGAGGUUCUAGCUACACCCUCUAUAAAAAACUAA. From B. subtilis. Hit rate about 0.7% of about 24,000 compounds.
SAM-II: SAM-II riboswitch RNA pseudoknot, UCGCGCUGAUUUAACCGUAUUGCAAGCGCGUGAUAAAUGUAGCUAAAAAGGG. Hit rate about 1% of about 21,000 compounds.

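Compounds were printed on reactive glass slides in duplicate spots, a dye-labelled oligonucleotide was laid over them, and the fluorescence left after washing was read. For the PreQ1, TPP and SAM-II riboswitches the laboratory earlier reported (doi:10.1038/s41467-019-09493-3) 1 µM RNA, 2 h, and a rule that included a mean Z-score above 3 (spot signal-to-noise against the whole library), a score well above that on a control array, and duplicate spots agreeing (coefficient of variation under 100). The data file gives only the calls; its cut-offs may differ, and compounds hitting several targets are kept. A missing hit is not proof of no binding, and a hit is not a measured affinity.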 A compound is marked active if it was called a hit and inactive if it was screened but was not. This is an unselected part of the compounds tested. A dash means that no call is listed here.

structure,TPP,PreQ1,SAM-II
CCc1nc(N)sc1C(=O)N1CCN(c2ccccc2OC)C(C)(C)C1,inactive,inactive,inactive
O=C(O)c1ccc(COc2ccc(Br)cc2CO)cc1,inactive,inactive,inactive
CCc1c(-c2ccccc2)n(CCCO)c2nc3c(c(=O)n(C)c(=O)n3C)n12,inactive,inactive,inactive
CC1=C(c2ccccc2)S(=O)(=O)N=C1Nc1ccccc1Br,inactive,inactive,-
Cc1cc(CN(C)c2nccc(N3CCN[C@H]4CS(=O)(=O)C[C@H]43)n2)no1,inactive,inactive,inactive
Cc1cc(NCCCN2CCOCC2)n2nc(C(F)(F)F)c(-c3ccccc3)c2n1,inactive,inactive,-
OCc1nnc2n1N=C(c1ccc(Cl)cc1)CS2,inactive,inactive,inactive
CC1CCC(C(C)C)C(OCC(O)CN2CCN(c3ccccc3)CC2)C1 (stereo not drawn),inactive,inactive,inactive
O=C(CC1CCNC1)NCc1cccc(Oc2ccccc2)c1 (stereo not drawn),inactive,inactive,inactive
COc1ccc(CNCCC2(CCC(C)C)CCOC(C)(C)C2)cc1OC (stereo not drawn),inactive,inactive,-
CSCC(=O)N[C@H]1CC[C@H]1NC1CCN(Cc2ccccc2)CC1,inactive,inactive,inactive
Nc1nc2ncc([N+](=O)[O-])cn2n1,inactive,inactive,inactive
Cc1ccc(S(=O)(=O)NCC(NC(C)(C)C)c2ccccc2)cc1 (stereo not drawn),inactive,inactive,-
Cn1c(=O)n(C)c2cc(CNC3CCCCCC3)ccc21,inactive,inactive,-
O=S1(=O)C[C@@H](O)[C@H](NC2CCN(c3ncnc4ccsc34)CC2)C1,inactive,inactive,inactive
c1cncc(CNCc2cc(-c3ccc4c(c3)OCO4)no2)c1,inactive,inactive,inactive
CCC(CO)N(Cc1cccnc1)Cc1nccn1C (stereo not drawn),inactive,inactive,inactive
CCOC(=O)c1cnc2c(-c3ccccc3OC)c(C)nn2c1N,inactive,inactive,-
Cc1ccc(C2C(C#N)=C(N)OC3=C2S(=O)(=O)N(Cc2ccccc2C)c2ccccc23)cc1 (stereo not drawn),inactive,inactive,inactive
Cn1cnnc1SCC(=O)N1CC[C@@](C)(O)[C@@H](O)C1,inactive,inactive,inactive
OCc1csc(N2CCN(Cc3ncc[nH]3)CC(O)C2)n1 (stereo not drawn),inactive,inactive,inactive
O=S(=O)(c1ccc2nc(NC3CCCC3)cnc2c1)N1CCCCC1,inactive,inactive,inactive
Cn1c(CO)nnc1C1CCN(Cc2cn(-c3ccccc3)nn2)CC1,inactive,inactive,inactive
CCCc1noc2c1C(c1cc(Br)ccc1F)C(C#N)=C(N)N2 (stereo not drawn),inactive,inactive,inactive
COC(=O)c1ccc(NC2c3ccccc3C(=O)N2c2ccc(C)cn2)cc1 (stereo not drawn),inactive,inactive,inactive
Nc1ccc(S(=O)(=O)Nc2ccc(F)cc2)cc1,inactive,inactive,inactive
COc1ccc(OCCN[C@H]2CS(=O)(=O)C[C@@H]2S(=O)(=O)c2ccc(Cl)cc2)cc1,inactive,inactive,-
COc1ccc(Cl)cc1NC(=O)c1sc2nc(-c3ccc(OC)c(OC)c3)ccc2c1N,inactive,inactive,inactive
O=C(NCCO)C1COc2ccccc2O1 (stereo not drawn),inactive,inactive,inactive
Oc1cccc2ccc(CNc3ccc(F)cc3)nc12,inactive,inactive,inactive
CC(CCc1ccc(O)cc1)NCCc1ccc(O)c(O)c1 (stereo not drawn),inactive,inactive,inactive

Once more, the final 4:

structure	TPP	PreQ1	SAM-II
COc1ccc(Cl)cc1NC(=O)c1sc2nc(-c3ccc(OC)c(OC)c3)ccc2c1N	inactive	inactive	inactive
O=C(NCCO)C1COc2ccccc2O1 (stereo not drawn)	inactive	inactive	inactive
Oc1cccc2ccc(CNc3ccc(F)cc3)nc12	inactive	inactive	inactive
CC(CCc1ccc(O)cc1)NCCc1ccc(O)c(O)c1 (stereo not drawn)	inactive	inactive	inactive

Source: the ROBIN nucleic acid binder screens (doi:10.1002/anie.202211358).